Consider 26 compounds from the supplement of paper PMC12823440, “Inhibitors supercharge kinase turnover through native proteolytic circuits” (Nature, 2025).

The chains behind the UniProt entries cited, without tags or fusion partners. Where a name states a change or a piece, a line headed by the entry shows the natural chain unless it says otherwise.
UniProt Q9BUB5: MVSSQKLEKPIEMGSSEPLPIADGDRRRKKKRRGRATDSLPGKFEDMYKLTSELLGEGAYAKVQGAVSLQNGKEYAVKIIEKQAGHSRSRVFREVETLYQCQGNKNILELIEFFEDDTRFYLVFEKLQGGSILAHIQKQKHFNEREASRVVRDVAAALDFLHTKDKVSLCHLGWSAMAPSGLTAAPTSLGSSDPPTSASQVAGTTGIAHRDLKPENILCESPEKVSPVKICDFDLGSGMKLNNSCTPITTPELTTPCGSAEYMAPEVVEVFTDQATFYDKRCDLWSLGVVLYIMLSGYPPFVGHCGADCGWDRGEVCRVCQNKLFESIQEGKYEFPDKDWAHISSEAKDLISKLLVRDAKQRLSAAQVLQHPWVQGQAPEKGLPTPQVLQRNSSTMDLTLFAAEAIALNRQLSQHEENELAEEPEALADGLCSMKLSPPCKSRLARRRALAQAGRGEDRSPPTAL

Structures can show the parent of a compound that is named as a salt. The list shows a part of the results. Hit calls seldom repeat between salt and free forms of one compound.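 Kinases, fused to nanoluciferase, were expressed in K562 cells; luminescence was measured every 4 h from 2 to 18 h as percent of control (DMSO = 100%, positive control = 0%). A time point is decreased if signal falls significantly (2 sigma). Hits were called by the authors by a rule that is not shown; the count of time points alone does not decide it.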

The assay concerns the target MKNK1 (UniProt Q9BUB5). Briefly: kinase-Nluc reporter destabilization hit call (1 = scored as downregulated) (binary); higher = compound decreases kinase abundance. Particulars: K562; 2-18 h.
As for `Cc1ccc(C2CC(=O)NC(SCC(=O)Nc3nccs3)=C2C#N)cc1` (stereo unspecified) [Necrostatin-34] (10 µM), the “kinase-Nluc reporter destabilization hit call” value is inactive: 0. The same measure for `CNc1cc2c(Nc3cccc(Br)c3)ncnc2cn1` (10 µM): inactive: 0; for `Cn1cc(-c2nc(N[C@@H]3CCCC[C@@H]3N)c(F)c3c2C(=O)NC3)cn1` [TAK-659 (hydrochloride)] (2 µM): inactive: 0. The same measure for `CC(=O)Nc1nc(C)c(-c2cc(C)c3c(c2)CN([C@@H](C)C2CC2)C3=O)s1` (10 µM): inactive: 0; for `CN(C)c1ccc(/C=C2\C(=O)Nc3ccccc32)c2ccccc12` (10 µM): inactive: 0. The same measure for `COc1ccc(-c2cc(=O)c3c(O)cc(O)cc3o2)cc1-c1c(O)cc(O)c2c(=O)cc(-c3ccc(O)cc3)oc12` [Bilobetin] (2.5 µM): inactive: 0.

For the compound `O=C(NCc1ccn[nH]1)c1cc([C@@H]2CCNC[C@H]2COc2ccc3c(c2)OCO3)ccc1F` [GRK2-IN-1 (hydrochloride)] (10 µM), the “kinase-Nluc reporter destabilization hit call” value is inactive: 0.

As for `Nc1ccc(C(=O)Nc2cccc(-c3nc(N4CCOCC4)c4oc5ncccc5c4n3)c2)cn1` (10 µM), the “kinase-Nluc reporter destabilization hit call” value was active: 1. To `CCOC(=O)c1c(C)[nH]c(C=C2C(=O)Nc3ccccc32)c1C` (10 µM) belongs inactive: 0; to `CCCS(=O)(=O)N[C@H]1C[C@@H](N(C)c2ncnc3[nH]ccc23)C1` [Abrocitinib] (10 µM), inactive: 0; to `O=[N+]([O-])c1ccc(-c2nc(-c3ccc(F)cc3)c(-c3ccncc3)[nH]2)cc1` (10 µM), inactive: 0.

For the compound `O=C(O)c1c[nH]c2cc(Cl)c(-c3ccc(C4(O)CCC4)cc3)cc12` (10 µM), the “kinase-Nluc reporter destabilization hit call” value was inactive: 0. To `CN1CCC(Nc2nc(Nc3ccc(Oc4ccccc4)cc3)c3c(=O)[nH]cc(Br)c3n2)CC1` (2.5 µM) belongs inactive: 0; to `CO[C@]1(C(=O)N[C@@H](C)c2ccc(-n3cc(F)cn3)nc2)CC[C@H](c2nc(C)cc(Nc3cc(C)[nH]n3)n2)CC1` [Pralsetinib] (10 µM), inactive: 0; to `COc1c(Nc2ncc(Cl)c(N[C@H]3[C@@H](C(N)=O)[C@@H]4C=C[C@H]3C4)n2)ccc2c1CC[C@@H](N1CCOCC1)CC2` (10 µM), inactive: 0. The same measure for `CN1CCN(Cc2ccc(-c3cn(C4CCC(O)CC4)c4nc(NCCC5CC5)ncc34)cc2)CC1` (stereo unspecified) (2.5 µM): inactive: 0. The same measure for `C[C@@H]1COC(Nc2ccc3ncnc(Nc4ccc(OCc5nccs5)c(Cl)c4)c3c2)=N1` [Varlitinib] (10 µM): inactive: 0; for `CC(C)n1cnc2c(Nc3cccc(Cl)c3)nc(N[C@H]3CCCC[C@@H]3N)nc21` (2.5 µM): inactive: 0.

With `Cc1n[nH]c2ncc(C(=O)N3CCC[C@H]3c3ccc(Cl)cc3)cc12` (10 µM), the “kinase-Nluc reporter destabilization hit call” value was inactive: 0. Consider `COc1ccc2cc1Oc1ccc(cc1)C[C@H]1c3cc(c(OC)cc3CCN1C)Oc1c(O)c(OC)cc3c1[C@H](C2)N(C)CC3` [Fangchinoline] (2.5 µM), for which the “kinase-Nluc reporter destabilization hit call” value was inactive: 0. The same measure for `CS[C@@]1(C(=O)Nc2ccc3[nH]nc(-c4ccc(OC(C)C)nc4)c3c2)CCN(CC(=O)N2CC=C(c3ccc(-c4ncn(C)n4)cc3)CC2)C1` (2.5 µM): inactive: 0; for `CC/C(=C(\c1ccccc1)c1ccc(OCCNC)cc1)c1ccccc1` [N-Desmethyltamoxifen (hydrochloride)] (2.5 µM): inactive: 0; for `CNC(=O)CN1CCC(Oc2cc3c(Nc4cccc(Cl)c4F)ncnc3cc2OC)CC1` [Sapitinib] (10 µM): inactive: 0. The same measure for `O=CN1CCN(c2ccc(C=C3C(=O)Nc4ccccc43)cc2)CC1` (10 µM): inactive: 0; for `CCCCC(=O)OCC(=O)[C@]1(O)Cc2c(O)c3c(c(O)c2[C@@H](O[C@H]2C[C@H](NC(=O)C(F)(F)F)[C@H](O)[C@H](C)O2)C1)C(=O)c1c(OC)cccc1C3=O` [Valrubicin] (10 µM): inactive: 0. The same measure for `Fc1ccc(Cl)cc1-c1nc(Nc2ccncc2)c2nccnc2n1` (10 µM): inactive: 0.
